# Where a name gives a salt, the structure may show the parent alone. Some of the results follow. Single values are uncertain here, since repeats match poorly.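 Cells: ReNCell VM human fetal ventral-midbrain neural progenitors, differentiated mitogen-free. Blinded raters compared doublecortin-stained (early neurons) or tyrosine hydroxylase-stained (dopaminergic neurons) images with untreated wells, where 0 means no change. After repeats and both raters were averaged, compounds scoring 2 or above became hits for retesting.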
# Assays:
# ReNCell VM [1] = test: neuronal differentiation score (DCX+ cell fraction vs untreated, manual image score) (score (-3 to 3)); higher = more neuronal differentiation; settings: 2 uM, 2 weeks
# ReNCell VM [2] = test: dopaminergic neuron differentiation score (TH+ cell fraction vs untreated, manual image score) (score (0 to 3)); higher = more TH+ dopaminergic neuron differentiation; settings: 2 uM, 4 weeks, BDNF 10 ng/ml + GDNF 10 ng/ml
smiles,measurement,setting,value
CCCCCCCCCCCCCCCC(=O)NCC(COP(=O)([O-])OCC[N+](C)(C)C)OCC (racemic) [rac-2-Ethoxy-3-hexadecanamido-1-propylphosphocholine],neuronal differentiation score,ReNCell VM [1]; library: LOPAC,inactive: 0
same,dopaminergic neuron differentiation score,ReNCell VM [2]; library: LOPAC,inactive: 0
CCCCCC(=O)O[C@]1(C(C)=O)CC[C@H]2[C@@H]3CCC4=CC(=O)CC[C@]4(C)[C@H]3CC[C@@]21C,neuronal differentiation score,ReNCell VM [1]; library: Spectrum,active: 2
same,dopaminergic neuron differentiation score,ReNCell VM [2]; library: Spectrum,inactive: 0
CC(C)NC[C@H](O)COc1cccc2ccccc12 [(S)-Propranolol hydrochloride],neuronal differentiation score,ReNCell VM [1]; library: LOPAC,inactive: 0
same,dopaminergic neuron differentiation score,ReNCell VM [2]; library: LOPAC,inactive: 0
CCCCCCCCCCCCCCCC(=O)OC/C=C(C)/C=C/C=C(C)/C=C/C1=C(C)CCCC1(C)C,neuronal differentiation score,ReNCell VM [1]; library: Spectrum,inactive: 0
same,dopaminergic neuron differentiation score,ReNCell VM [2]; library: Spectrum,inactive: 0
CNc1cc(NS(=O)(=O)c2ccc(N)cc2)nc(NC)n1 [Ro 04-6790 dihydrochloride],neuronal differentiation score,ReNCell VM [1]; library: LOPAC,inactive: 0
same,dopaminergic neuron differentiation score,ReNCell VM [2]; library: LOPAC,inactive: 0
CC(=O)Nc1ccccc1,neuronal differentiation score,ReNCell VM [1]; library: Spectrum,inactive: 0
same,dopaminergic neuron differentiation score,ReNCell VM [2]; library: Spectrum,inactive: 0
C[C@H]1C(=O)CC[C@@H]2[C@]1(C)CC[C@H]1[C@@]2(C)CC[C@@]2(C)[C@@H]3CC(C)(C)CC[C@]3(C)CC[C@]12C,neuronal differentiation score,ReNCell VM [1]; library: Spectrum,inactive: 0
same,dopaminergic neuron differentiation score,ReNCell VM [2]; library: Spectrum,inactive: 0
"NC(C(=O)O)C(O)C(=O)O (stereo not drawn) [d,l-threo-3-HYDROXYASPARTIC ACID]",neuronal differentiation score,ReNCell VM [1]; library: Spectrum,inactive: 0
same,dopaminergic neuron differentiation score,ReNCell VM [2]; library: Spectrum,inactive: 0
NC(=O)[C@@H]1CCCN1C(=O)[C@H](Cc1c[nH]cn1)NC(=O)[C@@H]1CCC(=O)N1,neuronal differentiation score,ReNCell VM [1]; library: Spectrum,inactive: 0
same,dopaminergic neuron differentiation score,ReNCell VM [2]; library: Spectrum,inactive: 0
O=S(=O)(c1cccc2cnccc12)N1CCCNCC1,neuronal differentiation score,ReNCell VM [1]; library: Spectrum,inactive: 0
same,dopaminergic neuron differentiation score,ReNCell VM [2]; library: Spectrum,inactive: 0
Cc1oncc1C(=O)Nc1ccc(C(F)(F)F)cc1,neuronal differentiation score,ReNCell VM [1]; library: Spectrum,inactive: 0
same,dopaminergic neuron differentiation score,ReNCell VM [2]; library: Spectrum,inactive: 0
"CCCCCCCCCCC/C=C\C(C)(C)/C=C\CCCC(=O)O [7,7-Dimethyl-(5Z,8Z)-eicosadienoic acid]",neuronal differentiation score,ReNCell VM [1]; library: LOPAC,inactive: 0
same,dopaminergic neuron differentiation score,ReNCell VM [2]; library: LOPAC,inactive: 0
O=c1cc(-c2cc(O)c(O)c(O)c2)oc2cc(O)cc(O)c12,neuronal differentiation score,ReNCell VM [1]; library: Spectrum,inactive: 0
same,dopaminergic neuron differentiation score,ReNCell VM [2]; library: Spectrum,inactive: 0
Nc1c2c(nc3ccccc13)CCCC2,neuronal differentiation score,ReNCell VM [1]; library: Spectrum,inactive: 0
same,dopaminergic neuron differentiation score,ReNCell VM [2]; library: Spectrum,inactive: 0
NS(=O)(=O)c1cccc2c1c([N+](=O)[O-])cc1nc(O)c(O)nc12 [NBQX disodium],neuronal differentiation score,ReNCell VM [1]; library: LOPAC,inactive: 0
same,dopaminergic neuron differentiation score,ReNCell VM [2]; library: LOPAC,inactive: 0
CN(C)CCOC(=O)COc1ccc(Cl)cc1 [Meclofenoxate hydrochloride],neuronal differentiation score,ReNCell VM [1]; library: Prestwick,inactive: 0
same,dopaminergic neuron differentiation score,ReNCell VM [2]; library: Prestwick,inactive: 0
CC(N)C12CC3CC(CC(C3)C1)C2 (centres undefined) [Rimantadine Hydrochloride],neuronal differentiation score,ReNCell VM [1]; library: Prestwick,inactive: 0
same,dopaminergic neuron differentiation score,ReNCell VM [2]; library: Prestwick,inactive: 0
COc1cc(-c2coc3cc(O)c(OC)c(O)c3c2=O)cc(O)c1OC,neuronal differentiation score,ReNCell VM [1]; library: Spectrum,inactive: 0
same,dopaminergic neuron differentiation score,ReNCell VM [2]; library: Spectrum,inactive: 0
CO/N=C(\C(=O)N[C@@H]1C(=O)N2C(C(=O)OC(C)OC(C)=O)=C(COC(N)=O)CS[C@H]12)c1ccco1 (some centres undefined),neuronal differentiation score,ReNCell VM [1]; library: Spectrum,inactive: 0
same,dopaminergic neuron differentiation score,ReNCell VM [2]; library: Spectrum,inactive: 0
O=C(NCCO)c1ccc2c(c1)nc(Nc1cccc(Cl)c1)c1ccncc12 [CK2 Inhibitor 2],neuronal differentiation score,ReNCell VM [1]; library: LOPAC,inactive: 0
same,dopaminergic neuron differentiation score,ReNCell VM [2]; library: LOPAC,inactive: 0
CC(C)Cn1c(=O)n(C)c(=O)c2[nH]cnc21,neuronal differentiation score,ReNCell VM [1]; library: Spectrum,inactive: 0
same,dopaminergic neuron differentiation score,ReNCell VM [2]; library: Spectrum,inactive: 0
C#C[C@]1(O)CC[C@H]2[C@@H]3CCC4=CC(=O)CC[C@@H]4[C@H]3CC[C@@]21CC [Norgestrel-(-)-D],neuronal differentiation score,ReNCell VM [1]; library: Prestwick,inactive: 0
same,dopaminergic neuron differentiation score,ReNCell VM [2]; library: Prestwick,inactive: 0
Nc1ccc(/N=N/c2ccccc2)c(N)n1 [Phenazopyridine hydrochloride],neuronal differentiation score,ReNCell VM [1]; library: Prestwick,inactive: 0
same,dopaminergic neuron differentiation score,ReNCell VM [2]; library: Prestwick,inactive: 1
O=C(O)c1cc(-c2ccccc2)nc2ccccc12,neuronal differentiation score,ReNCell VM [1]; library: Spectrum,inactive: 0
same,dopaminergic neuron differentiation score,ReNCell VM [2]; library: Spectrum,inactive: 1
N[C@@H](C(=O)N[C@@H]1C(=O)N2C(C(=O)O)=C(Cl)CS[C@H]12)c1ccccc1 [Cefaclor],neuronal differentiation score,ReNCell VM [1]; library: LOPAC,inactive: 0
same,dopaminergic neuron differentiation score,ReNCell VM [2]; library: LOPAC,inactive: 0
CC1(C)Oc2ccc(C#N)cc2[C@H](N2CCCC2=O)[C@H]1O [Cromakalim],neuronal differentiation score,ReNCell VM [1]; library: Tocriscreen,inactive: 0
same,dopaminergic neuron differentiation score,ReNCell VM [2]; library: Tocriscreen,inactive: 0
C=C1/C(=C\C=C2/CCC[C@]3(C)[C@@H]([C@H](C)/C=C/[C@@H](O)C4CC4)CC[C@@H]23)C[C@@H](O)C[C@@H]1O [Calcipotriol],neuronal differentiation score,ReNCell VM [1]; library: Tocriscreen,inactive: 0
same,dopaminergic neuron differentiation score,ReNCell VM [2]; library: Tocriscreen,inactive: 0
C[C@H]1[C@H]2CC[C@H]3[C@@H]4CC=C5C[C@@H](N(C)C)CC[C@]5(C)[C@H]4CC[C@]23CN1C [Conessine],neuronal differentiation score,ReNCell VM [1]; library: Phytochemical,inactive: 1
same,dopaminergic neuron differentiation score,ReNCell VM [2]; library: Phytochemical,inactive: 0
CNC1CCc2cc(OC)c(OC)c(OC)c2-c2ccc(O)c(=O)cc21 (centres undefined) [demecolceine],neuronal differentiation score,ReNCell VM [1]; library: Natural,inactive: 0
same,dopaminergic neuron differentiation score,ReNCell VM [2]; library: Natural,inactive: 0
CNCCCCc1cnc(C)c2[nH]c3ccccc3c12 [brevicarine],neuronal differentiation score,ReNCell VM [1]; library: Natural,inactive: 0
same,dopaminergic neuron differentiation score,ReNCell VM [2]; library: Natural,inactive: 0
Cc1cc(I)ccc1Nc1c(C(=O)NOCC2CC2)cc(F)c(F)c1F,neuronal differentiation score,ReNCell VM [1]; library: Tocriscreen,inactive: 0
same,dopaminergic neuron differentiation score,ReNCell VM [2]; library: Tocriscreen,inactive: 0
CC(C)CCC[C@@H](C)[C@H]1CC[C@H]2[C@@H]3C=CC4=CC(=O)CC[C@]4(C)[C@H]3CC[C@]12C,neuronal differentiation score,ReNCell VM [1]; library: Spectrum,inactive: 0
same,dopaminergic neuron differentiation score,ReNCell VM [2]; library: Spectrum,inactive: 0

# Reprinted at random: 3 records from the list
smiles,measurement,setting,value
O=C(O)c1cc(-c2ccccc2)nc2ccccc12,neuronal differentiation score,ReNCell VM [1]; library: Spectrum,inactive: 0
"CCCCCCCCCCC/C=C\C(C)(C)/C=C\CCCC(=O)O [7,7-Dimethyl-(5Z,8Z)-eicosadienoic acid]",neuronal differentiation score,ReNCell VM [1]; library: LOPAC,inactive: 0
Nc1ccc(/N=N/c2ccccc2)c(N)n1 [Phenazopyridine hydrochloride],dopaminergic neuron differentiation score,ReNCell VM [2]; library: Prestwick,inactive: 1

# As a working copy, part of the list above.
smiles,measurement,setting,value
CCCCCC(=O)O[C@]1(C(C)=O)CC[C@H]2[C@@H]3CCC4=CC(=O)CC[C@]4(C)[C@H]3CC[C@@]21C,dopaminergic neuron differentiation score,ReNCell VM [2]; library: Spectrum,inactive: 0
CC(C)NC[C@H](O)COc1cccc2ccccc12 [(S)-Propranolol hydrochloride],neuronal differentiation score,ReNCell VM [1]; library: LOPAC,inactive: 0

# Reference: the supplement of paper PMC4635364
